The nature of the test: qHTS Assay for Lipid Storage Modulators in Drosophila S3 Cells.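 For cell number change: cells counted by Cell Tracker Red CMTPX staining in the red channel.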 The conditions noted are these: BODIPY lipid droplet fluorescence, 18-24 h; for cell number change: measured here: cell count max response, cells fed with added oleic acid. The gist of the method: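 Drosophila S3 cells loaded with oleic acid (400 uM, as added) and compounds at several concentrations; lipid droplets imaged by 488-nm laser-scanning cytometry, 500–530 nm intensity and object ratio to cell channel. Percent activity normalized to 20 uM Triacsin C.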
In general terms: Quantitative high-throughput screening tests each substance at several concentrations.

The mark [1] stands for this setting: measured here: cell number channel AC50, cells fed with added oleic acid.
[2] abbreviates: measured here: lipid fluorescence (Fed channel) AC50, cells fed with added oleic acid.

Some of the results follow. Shown are side measurements of this screen, not its main read-out; they come without a call. Most of these compounds were active or inconclusive in the main read-out, so they are no random draw. Potencies come from curve fits of mixed quality, noted in brackets.

Our source for the AC50 and cell number change values is PubChem BioAssay AID2685 (National Center for Advancing Translational Sciences (NCATS), 2010).

In the case of `Cc1noc(NS(=O)(=O)c2ccc(NC(=O)CSc3nnc4c(n3)[nH]c3ccccc34)cc2)c1C`, the AC50 reads like this: under setting [1], 0.146 µM [rising, full curve, poor fit]; under setting [2], 20.6 µM [rising, single point].
For `COc1ccc(O)c(C(=O)CC(=O)c2ccccc2C)c1`, the cell number change was -46.7%. In addition, under setting [1], the AC50 is 11.6 µM [falling, partial curve]. For the same molecule, the half-maximal activity concentration (AC50) under setting [2] was 23.1 µM [falling, partial curve, poor fit].
In the case of `CCOc1ccc2nc(NC(NC(=O)CC)(C(=O)OC)C(F)(F)F)sc2c1` (configuration not stated), the cell number change was -20.4%. Also, under setting [2], the AC50 is 2.06 µM [falling, partial curve, poor fit].
For `Cc1ccc2c(CN3CCN(S(=O)(=O)c4ccccc4C(F)(F)F)CC3)cc(=O)oc2c1C`, the cell number change is -43.7%. In addition, the AC50 under setting [1] was 29.1 µM [falling, single point]. Besides, the AC50 under setting [2] is 23.1 µM [falling, single point].
Regarding `O=S(=O)(NCCCCCCNS(=O)(=O)c1c(F)cccc1F)c1ccc2c(c1)OCCO2`, the cell number change is -1.68%. Further, the AC50 under setting [2] was 0.0116 µM [rising, full curve].
Take `COCCNC(=O)C1CCC(=O)N(c2ccc(OC)cc2)C1c1ccc(OC)c(OC)c1` (configuration not stated): the cell number change is 17.6%. Further, the AC50 under setting [2] is 0.164 µM [falling, full curve, poor fit].
`Nc1nc(Cl)cc(N2CCOCC2)n1`: the cell number change is 11.2%.
For the molecule `CCOC(=O)c1ccc(N2C(=O)C=CC2=O)cc1`, the cell number change was -89.6%. Also, under setting [1], the AC50 is 25.9 µM [falling, single point]. Besides, the AC50 under setting [2] was 29.1 µM [falling, single point].
For the molecule `CCc1nnc(NC(=O)NC(C)(C)C)s1`, the cell number change came out at 66.1%. In addition, the AC50 under setting [1] was 29.1 µM [rising, partial curve, poor fit]. The AC50 under setting [2] was 14.6 µM [rising, partial curve, poor fit].
Turning to `O=C(NC1=NCCS1)c1ccc(Cl)c(S(=O)(=O)N2CCOCC2)c1`, the cell number change is 24.9%. Also, the concentration at half-maximal activity (AC50) under setting [1] is 0.82 µM [rising, full curve, poor fit].
Take `O=C(Nc1ccc(Cl)c(Cl)c1)N1CCSC1c1ccco1` (configuration not stated): the cell number change was -37.7%. Besides, under setting [1], the AC50 was 20.6 µM [falling, partial curve]. Besides, the AC50 under setting [2] is 0.0517 µM [rising, full curve, poor fit].
Take `CC(=O)c1cccc(NC(=S)NC(=O)CC(C)(C)C)c1`: the cell number change was -48.7%. Besides, the AC50 under setting [1] is 1.03 µM [falling, full curve, poor fit].
Consider `O=C(Cn1cc([N+](=O)[O-])cn1)NCc1cc2ccccc2[nH]1`, for which the cell number change is 8.82%. Also, the AC50 under setting [2] was 0.651 µM [rising, partial curve, poor fit].
With `COc1ccc(N2CC(C(=O)Nc3nnc(SCC(=O)c4ccccc4)s3)CC2=O)cc1` (configuration not stated), the cell number change turned out to be 23.3%. For the same molecule, the AC50 under setting [2] was 10.3 µM [rising, partial curve].

By AC50 is commonly meant the midpoint of the concentration-response curve, whichever way the signal moves. Lower therefore signals greater potency.
